PubChem BioAssay AID1845228

Conditions: pampa; 60.0 min; 50.0 µM

Papp	SMILES
60.1 ×10⁻⁶ cm/s	C[C@@H]1COCCN1c1cc(-c2ccnn2C)c2ccnc(-c3ccn[nH]3)c2n1
17 ×10⁻⁶ cm/s	C[C@@H](O)[C@H]1C(=O)N2C(C(=O)OCOC(=O)C(C)(C)C)=C(SC3CN(C4=NCCS4)C3)[C@H](C)[C@H]12
